According to patent US11998013B1, “1-(morpholin-4-yl)-3-(naphthalen-2-yloxy)propan-2-ol as an eco-friendly insecticidal agent against spodoptera littoralis (boisd.)” (priority 2023, dated 2024):

Tested on: Spodoptera littoralis
Test: Insecticidal bioassay screening (castor leaf dip, larval mortality)
Format: in vivo
Conditions: 72 h, slope of regression (LDP) line
Method: Five concentrations (200, 100, 50, 25, 12.5 ppm) were designed for this synthetic compound and the reference fenoxycarb compound as the dynamic ingredients based on ppm via diluting the commercial formulation.
In this experiment, castor leaves are immersed in each of the previously prepared concentrations of the components for 10 seconds and then left to dry for 60 minutes. Larvae of the second and fourth instars of each checked strain are prepared with treated leaves in gauze-covered glass containers for 72 hrs. An untreated control is made in which leaves are dipped in triton x-100 and distilled water only. Then the preserved leaves were removed & fresh, untreated leaves were provided for 72 hours. Three replicates (10 larvae each) were checked for each concentration. Daily inspection was carried out for all treatments and mortality percentages were recorded 3 days (72 hours) after treatment. The average mortality percentage was corrected employing Abbott's formula. The corrected mortality rate for each of the previously synthesized compounds is statistically calculated according to Finney (1970). Through this rate, the corresponding concentration test lines (LDP lines) are assessed. Fifty and ninety percent mortality are determined, and the regression values for the checked products were previously evaluated.

## OC(COc1ccc2ccccc2c1)CN1CCOCC1 (centres unmarked) [Compound 2, 1-(morpholin-4-yl)-3-(naphthalen-2-yloxy)propan-2-ol]
2nd instar larvae
  slope ± SE: 0.238 ± 0.076
4th instar larvae
  slope ± SE: 0.255 ± 0.0862
